# Article PMC10761696, “Avapritinib-based SAR studies unveil a binding pocket in KIT and PDGFRA” (Nature Communications, 2024)
# Assay: MDCKII-MDR1 permeability assay
# Conditions: dog, MDCK-MDR1, MDCKII-MDR1 (PappA→B), reference compounds, mean over routine assay runs
structure (smiles),measurement,value
"CC(C)NCC(O)COc1ccc(CC(N)=O)cc1 (stereo not shown) [atenolol, reference compound]","Papp A→B at 2 h, 10 µM",1.1 ± 3.5 ×10⁻⁶ cm/s
